In this series the test system is hESC. Put plainly: Capture of lipid-modified Wnt/Shh proteins from embryonic stem cell cultures by cyclodextrin solution. In kind it is cell-based, human. Conditions: 10 mM cyclodextrin solution. As for the experimental part: Embryonic stem cells were expanded according to current published methods using a serum free media supplemented with bFGF (10 ng/ml) and activin A (5 ng/ml) on an adherent substrate consisting on a thin layer of MATRIGEL®. After confluence, half of the cultures were fed with the same media not including the growth factors bFGF and Activin A. A cell culture supernatant sample was analyzed for follistatin concentration.
Individual cultures, undifferentiated or partial differentiated, were exposed to 10 mM solution of α-cyclodextrin, β-cyclodextrin, γ-cyclodextrin, or methyl-β-cyclodextrin (MBCD) for 60 min to 180 min. The cell cultures before exposure were smooth, compact, and multilayered (FIG. 5A). After incubation with a cyclodextrin, the cultures were disrupted with the majority of cells losing adherence (FIG. 5B).
The MBCD solution incubated with the cells was then analyzed for the concentration of Shh, Wnt 3a, and Wnt7a.

With `OC[C@H]1O[C@@H]2O[C@H]3[C@H](O)[C@@H](O)[C@@H](O[C@H]4[C@H](O)[C@@H](O)[C@@H](O[C@H]5[C@H](O)[C@@H](O)[C@@H](O[C@H]6[C@H](O)[C@@H](O)[C@@H](O[C@H]7[C@H](O)[C@@H](O)[C@@H](O[C@H]8[C@H](O)[C@@H](O)[C@@H](O[C@H]1[C@H](O)[C@H]2O)O[C@@H]8CO)O[C@@H]7CO)O[C@@H]6CO)O[C@@H]5CO)O[C@@H]4CO)O[C@@H]3CO` [β-cyclodextrin], the “Capture effect compared with methyl-β-cyclodextrin” value was “reduced but proportional effect”. The same measure for `OC[C@H]1O[C@@H]2O[C@H]3[C@H](O)[C@@H](O)[C@@H](O[C@H]4[C@H](O)[C@@H](O)[C@@H](O[C@H]5[C@H](O)[C@@H](O)[C@@H](O[C@H]6[C@H](O)[C@@H](O)[C@@H](O[C@H]7[C@H](O)[C@@H](O)[C@@H](O[C@H]1[C@H](O)[C@H]2O)O[C@@H]7CO)O[C@@H]6CO)O[C@@H]5CO)O[C@@H]4CO)O[C@@H]3CO` [α-cyclodextrin]: “reduced but proportional effect”.

Source of the values: patent publication US20250288512A1, “USE OF CELL MEMBRANE-BOUND SIGNALING FACTORS” (AIVITA Biomedical, Inc., priority 2016, published 2025).
